{
  "source": "patent US20040009921A1",
  "about": "“Methods and compositions for the treatment of cancer” (Allergan, Inc., priority 2002, published 2004)",
  "origin": "cited, not measured here",
  "key": {"[1]": {"tested_on": "β-catenin-LEF/TCF signaling pathway in APC mutant colon cancer (Caco-2) cells", "conditions": "retinoid-sensitive APC mutant Caco-2 cells; cited from earlier work"}, "[2]": {"tested_on": "RAR and GST-β-catenin fusion protein", "conditions": "in vitro transcribed and translated RAR; cited from earlier work"}},
  "note": "At least one compound was matched to its structure with a doubt left.",
  "data": [
    {"smiles": "CC1=C(/C=C/C(C)=C/C=C/C(C)=C/C(=O)O)C(C)(C)CCC1", "note": "[retinoic acid]", "values": [
      {"measurement": "transcription of a LEF/TCF reporter gene", "setting": "[1]", "result": "decrease the degree of transcription"},
      {"measurement": "interaction of RAR with GST-β-catenin fusion protein", "setting": "[2]", "result": "increased"}
    ]}
  ]
}
